Assay results from US11718645B2 (University of Florida Research Foundation, Incorporated, priority 2014, dated 2023).

Assay: general procedure: solution-phase peptide synthesis; PyAOP (BG, BI, BJ); DEPBT (BH)
Settings: cyclisation step

Substance: Apratoxin S4
- cyclisation yield (in 3 steps from precursor BG): 60% in 3 steps

Substance: Apratoxin S7
- cyclisation yield (in 3 steps from precursor BH): 25% in 3 steps

Substance: Apratoxin S8
- cyclisation yield (in 3 steps from precursor BI): 70% in 3 steps

Substance: Apratoxin S9
- cyclisation yield (in 3 steps from precursor BJ): 45% in 3 steps
